Laboratory results as given in patent US20230059181A1.
Changes are numbered by the printed parent chain. In names and notes the source's numbering stands. No constants are given. Whether binding was seen depends on the method and setting. Some binding calls cover weakened binding; strength is not graded here. Blank lines part the entries; values can stand above or below the binder they belong to.

By UniProt entry, the sequences of proteins in these tests, tags left out. Residues count along the entry.
UniProt O75015, residues 17-200: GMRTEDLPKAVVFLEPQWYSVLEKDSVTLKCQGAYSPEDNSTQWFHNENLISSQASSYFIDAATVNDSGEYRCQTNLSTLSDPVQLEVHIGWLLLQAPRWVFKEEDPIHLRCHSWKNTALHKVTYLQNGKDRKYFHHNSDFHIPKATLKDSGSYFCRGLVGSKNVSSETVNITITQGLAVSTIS

Key:
[1] = biological target: Human CD16B (FcγRIIIB), His-tagged (human) (UniProt O75015); experiment: SPR single cycle, His-tagged receptor captured, antibody as analyte
[2] = biological target: Human CD16B (FcγRIIIB), His-tagged (human) (UniProt O75015); experiment: SPR single cycle, relative binding grade

binding [1]: binds
binding [2]: binds
B1: HMW-MAA_IGEG-dFcRn (antibody, human IgG1, kappa)
heavy: EVQLVQSGGGLVQPGGSLKLSCAVSGFTFSNYWMNWVRQAPGKGLEWVGEIRLKSNNFGRYYAESVKGRFTISRDDSKNTAYLQMNSLKTEDTAVYYCTSYGNYVGHYFDHWGQGTLVTVSSASTQSPSVFPLTRCCKNIPSNATSVTLGCLATGYFPEPVMVTWDTGSLNGTTMTLPATTLTLSGHYATISLLTVSGAWAKQMFTCRVAHTPSSTDWVDNKTFSVCSRDFTPPTVKILQSSCDGGGHFPPTIQLLCLVSGYTPGTINITWLEDGQVMDVDLSTASTTQEGELASTQSELTLSQKHWLSDRTYTCQVTYQGHTFEDSTKKCADSNPRGVSAYLSRPSPFDLFIRKSPTITCLVVDLAPSKGTVNLTWSRASGKPVNHSTRKEEKQRNGTLTVTSTLPVGTRDWIEGETYQCRVTHPHLPRALMRSTTKTSGPRAAPEVYAFATPEWPGSRDKRTLACLIQNFMPEDISVQWLHNEVQLPDARHSTTQPRKTKGSGFFVFSRLEVTRAEWEQKDEFICRAVHEAASPSQTVQRAVSVNPGKRSEPKSCDKTHTCPPCPAPELLGGPSVFLFPPKPKDTLMASRTPEVTCVVVDVSHEDPEVKFNWYVDGVEVHNAKTKPREEQYNSTYRVVSVLTVLAQDWLNGKEYKCKVSNKALPAPIEKTISKAKGQPREPQVYTLPPSREEMTKNQVSLTCLVKGFYPSDIAVEWESNGQPENNYKTTPPVLDSDGSFFLYSKLTVDKSRWQQGNVFSCSVMHEALHNAYTQKSLSLSPGK
light: DIQLTQSPSFLSASVGDRVTITCKASQNVDTNVAWYQQKPGKAPKPLLFSASYRYTGVPSRFSGSGSGTDFTLTISSLQPEDFATYFCQQYNSYPLTFGGGTKVEIKRTVAAPSVFIFPPSDEQLKSGTASVVCLLNNFYPREAKVQWKVDNALQSGNSQESVTEQDSKDSTYSLSSTLTLSKADYEKHKVYACEVTHQGLSSPVTKSFNRGEC

binding [1]: binds
binding [2]: binds
B2: HMW-MAA_IGEG-C220S-dFcRn (antibody)
heavy: B1 heavy with C557S
light: B1 light
